Reference: article PMC3174178
Results are given in words; binding and its absence hold for the method and conditions named. In cells and extracts the contact can be indirect. Some entries that bind do so weakly or less than the wild type.

Chains of the proteins cited; added tags and fusions are not shown.
UniProt Q9UGU0: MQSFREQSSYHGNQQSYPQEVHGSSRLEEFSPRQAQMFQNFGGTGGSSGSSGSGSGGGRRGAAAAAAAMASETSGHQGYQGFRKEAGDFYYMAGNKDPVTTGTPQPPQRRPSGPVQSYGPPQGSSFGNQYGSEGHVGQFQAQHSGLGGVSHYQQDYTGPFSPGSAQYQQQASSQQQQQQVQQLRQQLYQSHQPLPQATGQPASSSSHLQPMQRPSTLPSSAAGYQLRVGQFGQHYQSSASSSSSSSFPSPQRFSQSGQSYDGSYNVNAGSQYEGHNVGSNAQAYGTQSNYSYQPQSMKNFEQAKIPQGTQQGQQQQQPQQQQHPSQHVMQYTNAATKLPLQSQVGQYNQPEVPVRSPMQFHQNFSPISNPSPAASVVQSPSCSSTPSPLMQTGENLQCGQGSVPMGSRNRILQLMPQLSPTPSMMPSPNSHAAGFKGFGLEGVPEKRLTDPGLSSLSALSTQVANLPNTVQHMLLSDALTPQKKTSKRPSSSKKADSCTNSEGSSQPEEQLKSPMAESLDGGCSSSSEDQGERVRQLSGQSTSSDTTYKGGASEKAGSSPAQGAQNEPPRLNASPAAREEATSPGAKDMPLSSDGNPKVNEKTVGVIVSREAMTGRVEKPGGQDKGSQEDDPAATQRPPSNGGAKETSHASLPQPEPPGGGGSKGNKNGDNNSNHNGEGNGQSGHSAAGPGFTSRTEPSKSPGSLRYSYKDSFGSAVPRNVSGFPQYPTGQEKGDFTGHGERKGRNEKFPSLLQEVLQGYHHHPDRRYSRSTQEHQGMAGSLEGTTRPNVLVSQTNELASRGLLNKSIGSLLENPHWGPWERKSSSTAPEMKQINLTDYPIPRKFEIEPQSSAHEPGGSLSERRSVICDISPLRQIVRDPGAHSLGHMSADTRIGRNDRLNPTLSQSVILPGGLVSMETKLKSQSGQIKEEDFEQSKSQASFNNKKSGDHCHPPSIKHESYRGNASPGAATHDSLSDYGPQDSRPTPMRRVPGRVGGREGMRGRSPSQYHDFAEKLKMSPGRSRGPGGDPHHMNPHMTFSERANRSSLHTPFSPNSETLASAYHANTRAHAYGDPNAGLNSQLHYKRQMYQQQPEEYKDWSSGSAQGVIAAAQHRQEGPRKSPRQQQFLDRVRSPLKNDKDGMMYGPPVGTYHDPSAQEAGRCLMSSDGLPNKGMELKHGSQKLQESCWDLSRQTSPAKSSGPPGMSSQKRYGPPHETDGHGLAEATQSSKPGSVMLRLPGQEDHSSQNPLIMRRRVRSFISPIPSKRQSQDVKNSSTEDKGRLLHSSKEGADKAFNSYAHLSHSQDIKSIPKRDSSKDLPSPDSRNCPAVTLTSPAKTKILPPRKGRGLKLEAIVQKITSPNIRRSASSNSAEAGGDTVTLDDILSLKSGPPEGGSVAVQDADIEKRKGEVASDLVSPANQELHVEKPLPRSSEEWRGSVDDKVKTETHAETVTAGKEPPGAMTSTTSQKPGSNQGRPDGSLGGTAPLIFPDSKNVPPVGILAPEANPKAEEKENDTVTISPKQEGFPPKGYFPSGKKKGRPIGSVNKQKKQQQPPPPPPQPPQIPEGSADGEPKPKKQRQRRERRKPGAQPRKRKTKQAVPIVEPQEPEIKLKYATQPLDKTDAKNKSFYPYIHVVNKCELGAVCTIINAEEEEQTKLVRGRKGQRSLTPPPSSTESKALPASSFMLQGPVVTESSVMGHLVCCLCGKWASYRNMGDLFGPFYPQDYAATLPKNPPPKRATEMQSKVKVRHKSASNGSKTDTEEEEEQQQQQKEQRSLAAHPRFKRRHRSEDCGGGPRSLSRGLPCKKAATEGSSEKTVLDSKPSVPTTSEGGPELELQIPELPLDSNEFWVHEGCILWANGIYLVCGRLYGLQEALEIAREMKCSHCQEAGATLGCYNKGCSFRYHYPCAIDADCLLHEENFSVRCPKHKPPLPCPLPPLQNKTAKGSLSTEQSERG
UniProt P10275: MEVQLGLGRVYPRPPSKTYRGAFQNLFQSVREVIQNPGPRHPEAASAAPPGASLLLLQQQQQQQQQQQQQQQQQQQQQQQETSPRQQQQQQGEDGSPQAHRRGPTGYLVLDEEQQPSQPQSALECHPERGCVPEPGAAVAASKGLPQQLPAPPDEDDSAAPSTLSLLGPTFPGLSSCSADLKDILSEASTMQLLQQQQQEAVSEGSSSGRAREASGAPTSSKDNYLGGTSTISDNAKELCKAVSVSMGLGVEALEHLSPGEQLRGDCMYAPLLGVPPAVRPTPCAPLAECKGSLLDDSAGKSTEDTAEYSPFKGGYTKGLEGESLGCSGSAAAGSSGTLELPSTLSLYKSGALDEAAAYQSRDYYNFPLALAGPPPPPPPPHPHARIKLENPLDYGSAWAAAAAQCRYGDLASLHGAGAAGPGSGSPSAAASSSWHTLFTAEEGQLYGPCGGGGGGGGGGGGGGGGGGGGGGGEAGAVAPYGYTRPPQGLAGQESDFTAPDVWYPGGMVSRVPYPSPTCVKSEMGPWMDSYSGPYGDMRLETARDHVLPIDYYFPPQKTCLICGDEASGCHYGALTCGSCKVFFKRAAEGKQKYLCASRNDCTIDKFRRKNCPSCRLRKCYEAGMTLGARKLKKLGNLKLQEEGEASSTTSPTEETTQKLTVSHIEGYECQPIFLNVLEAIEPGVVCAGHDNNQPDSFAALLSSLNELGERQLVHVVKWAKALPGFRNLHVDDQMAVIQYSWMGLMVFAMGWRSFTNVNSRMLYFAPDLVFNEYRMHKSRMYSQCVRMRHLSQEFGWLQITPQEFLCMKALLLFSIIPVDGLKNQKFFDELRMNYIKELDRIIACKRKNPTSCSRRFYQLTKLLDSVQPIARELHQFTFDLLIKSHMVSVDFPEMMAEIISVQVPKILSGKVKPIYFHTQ

Experiments:
[1] = molecular target: in vitro translated 35S-methionine labeled SPBP (HA-SPBP) (UniProt Q9UGU0); assay: co-IP; both proteins in vitro translated with 35S-methionine, precipitated with anti-SPBP antibody or preimmune serum
[2] = molecular target: EGFP-AR (UniProt P10275); assay: co-IP; HeLa cells cotransfected with pDestEGFP-AR and pDestHA-SPBP, stimulated with 10^-7 M R1881; precipitated with anti-GFP, blotted with anti-SPBP
[3] = molecular target: EGFP-AR (UniProt P10275); assay: co-IP; HeLa cells cotransfected with pDestEGFP-AR and pDestHA-SPBP, not stimulated with R1881; precipitated with anti-GFP, blotted with anti-SPBP

Substance | binding [1] | binding [2] | binding [3]
GFP-AR, in vitro translated (from UniProt P10275 1-920) | binds | – | –
HA-SPBP (from UniProt Q9UGU0 1-1960) | – | binds | no binding (condition: cells not stimulated with R1881)
